Measurements reported in PubChem BioAssay AID1508588 (Peter MacCallum Cancer Centre, 2020).

Purpose: 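Which gene losses make BRAF-mutant melanoma cells more responsive to vemurafenib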 (primary screen)
Cells: human WM266.4 melanoma cells (BRAF V600 mutant)
Reagents: siRNA pool against human genes, 40 nM
Duration: 96 h from transfection to read-out
Treatment: vemurafenib 300 nM (about IC25), added 48 h after transfection, for 48 h; comparison arm got DMSO vehicle only
Measurement: 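Cell gain (DAPI nuclei at end minus before drug, mean of two replicates) and medium lactate by absorbance per cell, both as ratio to non-targeting siRNA, also grouped into fold-change classes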
Reading the numbers: cell gain with vemurafenib: higher = more cell gain than with non-targeting siRNA; lactate per cell with vemurafenib: higher = more lactate made per cell
Call rule: 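a knock-down counts as enhancing when its fold-change classes with vehicle and with vemurafenib, taken together, show a stronger drug effect on cell gain or lactate per cell; exact class pairs not stated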
Calls: active = enhances vemurafenib effect; inactive = no enhancement seen
In all, the deposit lists about 18,000 reagents; this is an unselected part. 790 of all reagents (4.4%) were called active. 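Calls rest on a combination of fold-change classes in drug and vehicle arms, not all shown here.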 Unmarked entries are inactive. Reagent sequences are not shown.

gene	cell gain with vemurafenib	lactate per cell with vemurafenib
ACYP1 (acylphosphatase 1)	0.5	0.62
FAHD2B (fumarylacetoacetate hydrolase domain containing 2B)	0.66	1.08
UGT1A9 (UDP glucuronosyltransferase family 1 member A9)	0.07	0.76
BCAP29 (B cell receptor associated protein 29)	0.39	1.14
RACGAP1 (Rac GTPase activating protein 1)	0.25	2.02
MON1A (MON1 vesicular trafficking associated A)	0.71	0.68
TWF1 (twinfilin actin binding protein 1)	0.94	0.91
IL24 (interleukin 24)	0.67	0.47
PLPP4 (phospholipid phosphatase 4)	0.33	1.44
MAP3K21 (mitogen-activated protein kinase kinase kinase 21)	0.58	1.7
RBMS2 (RNA binding motif single stranded interacting protein 2)	0.31	1.1
BTBD2 (BTB domain containing 2)	0.65	1.52
OR4C3 (olfactory receptor family 4 subfamily C member 3)	0.01 (active)	1.6
CLCF1 (cardiotrophin like cytokine factor 1)	0.58	0.78
MDN1 (midasin AAA ATPase 1)	0.49	0.99
SMURF1 (SMAD specific E3 ubiquitin protein ligase 1)	0.79	0.54
SEMG2 (semenogelin 2)	0.85	1.49
KIF5A (kinesin family member 5A)	0.69 (active)	0.41
KLHL2 (kelch like family member 2)	0.59	0.72
NSMCE3 (NSE3 component of SMC5/6 complex)	0.25	0.78
LMNTD1 (lamin tail domain containing 1)	0.52	0.88
ARHGEF25 (Rho guanine nucleotide exchange factor 25)	0.72	0.62
FPR1 (formyl peptide receptor 1)	1.06	0.48
AP3M1 (adaptor related protein complex 3 subunit mu 1)	0.71	1.02
FCHSD2 (FCH and double SH3 domains 2)	1.07	0.51
CYP1A1 (cytochrome P450 family 1 subfamily A member 1)	0.12 (active)	0.11
RBM8A (RNA binding motif protein 8A)	-0.33	1.57
LACC1 (laccase domain multifunctional purine nucleosidase 1)	0.75	0.72
GGA2	0.66	0.8
RLN1 (relaxin 1)	0.85	0.8
PHETA2 (PH domain containing endocytic trafficking adaptor 2)	0.43	0.86
PRSS57 (serine protease 57)	0.09	2.12
MMD2 (monocyte to macrophage differentiation associated 2)	0.88	0.79
SAMD3 (sterile alpha motif domain containing 3)	0.58	1.46
CD93 (CD93 molecule)	0.77	0.96
LCT (lactase)	0.65	0.99
POLR1H (RNA polymerase I subunit H)	0.21	0.9
HJURP (Holliday junction recognition protein)	0.35	1.38
CDCP1 (CUB domain containing protein 1)	0.44	0.8
H2AB1 (H2A.B variant histone 1)	1.07	1.22
MYO1A (myosin IA)	0.49	1.12
GJA9 (gap junction protein alpha 9)	0.33	1.55
PGK1 (phosphoglycerate kinase 1)	0.95	0.92
SIGLEC11 (sialic acid binding Ig like lectin 11)	0.45	1.24
C19orf44 (chromosome 19 open reading frame 44)	0.37	1.32
OR10S1 (olfactory receptor family 10 subfamily S member 1)	0.85	1.2
CPT1C (carnitine palmitoyltransferase 1C)	0.43	1
ECHDC1 (ethylmalonyl-CoA decarboxylase 1)	0.56	0.67
ATP4B (ATPase H+/K+ transporting subunit beta)	0.45	0.89
KDM5C (lysine demethylase 5C)	1.13	1.08
CD180 (CD180 molecule)	0.78	1.04
SLC28A2	0.5	1.23
CD74 (CD74 molecule)	0.72	0.95
ICAM4	0.69	0.69
TNFRSF11B (TNF receptor superfamily member 11b)	0.75	0.79
P4HA1 (prolyl 4-hydroxylase subunit alpha 1)	0.88	0.34
ASAP1 (ArfGAP with SH3 domain, ankyrin repeat and PH domain 1)	0.1	1.27
CEL (carboxyl ester lipase)	0.59	0.7
PRKAR2B	0.15	1.28
PPFIA1 (PPFI scaffold protein A1)	0.55	1.4
FGD1 (FYVE, RhoGEF and PH domain containing 1)	0.03	1.01
LIAT1 (ligand of ATE1)	0.78	0.6
SPATA12 (spermatogenesis associated 12)	0.5	0.87
KDM4A (lysine demethylase 4A)	0.16	1.54
CDH8 (cadherin 8)	0.65	0.84
TMEM213 (transmembrane protein 213)	0.32	1.44
PRMT6 (protein arginine methyltransferase 6)	0.82	0.58
ADH6 (alcohol dehydrogenase 6 (class V))	0.62	0.74
MRPL33 (mitochondrial ribosomal protein L33)	0.86	1.42
C16orf82 (chromosome 16 open reading frame 82)	0.53	1.12
BMP10 (bone morphogenetic protein 10)	0.2	2.37
ALK (ALK receptor tyrosine kinase)	0.09 (active)	1.12
CES4A (carboxylesterase 4A)	0.91	0.68
GLI3 (GLI family zinc finger 3)	0.57	0.82
FOXL1 (forkhead box L1)	0.07	1.58
SLC24A4	0.58	1.54
COL4A5 (collagen type IV alpha 5 chain)	0.92 (active)	0.4
RXRG (retinoid X receptor gamma)	-0.13	4.01
FAM78A (family with sequence similarity 78 member A)	-0.06	2.17
AKR1C4 (aldo-keto reductase family 1 member C4)	1.18	0.7
ZNF207 (zinc finger protein 207)	0.06	0.87
KANK3 (KN motif and ankyrin repeat domains 3)	0.63 (active)	0.66
FLG2 (filaggrin 2)	0.08	1.44
CASQ2 (calsequestrin 2)	0.5	0.88
RNF20 (ring finger protein 20)	1.39	0.74
FBXO48 (F-box protein 48)	0.53	1.29
CUL3 (cullin 3)	0.5	2.02
HAUS8 (HAUS augmin like complex subunit 8)	0.88	1.07
HTR3C (5-hydroxytryptamine receptor 3C)	0.53	0.86
EVX2 (even-skipped homeobox 2)	1.19	1.75
AMOTL1 (angiomotin like 1)	0.53	1.66
GRB14 (growth factor receptor bound protein 14)	0.3	1.12
TSGA10 (testis specific 10)	0.25	1.08
LMBR1 (limb development membrane protein 1)	0.34	1.46
DNM2 (dynamin 2)	0.59	1.21
CCDC78 (coiled-coil domain containing 78)	0.8	1.31
CNTFR (ciliary neurotrophic factor receptor)	0.85	0.74
MRPS18B (mitochondrial ribosomal protein S18B)	1.02	0.76
PIK3R5 (phosphoinositide-3-kinase regulatory subunit 5)	0.24	1.48
C20orf144 (chromosome 20 open reading frame 144)	0.79	0.86
SUZ12 (SUZ12 polycomb repressive complex 2 subunit)	0.19 (active)	0.4
GUCY2EP (guanylate cyclase 2E, pseudogene)	1.12	0.92
NKX2-2 (NK2 homeobox 2)	0.67	0.61
EXOC5 (exocyst complex component 5)	0.62	1.02
PLA2G2A (phospholipase A2 group IIA)	0.74	1.16
CHMP1B (charged multivesicular body protein 1B)	0.5	0.82
CPAMD8 (C3 and PZP like alpha-2-macroglobulin domain containing 8)	0.77	1.1

Reformatted: entries from further up.
OR4C3 (olfactory receptor family 4 subfamily C member 3)
- cell gain with vemurafenib: 0.01 (active)
- lactate per cell with vemurafenib: 1.6

CLCF1 (cardiotrophin like cytokine factor 1)
- cell gain with vemurafenib: 0.58
- lactate per cell with vemurafenib: 0.78

MDN1 (midasin AAA ATPase 1)
- cell gain with vemurafenib: 0.49
- lactate per cell with vemurafenib: 0.99

SMURF1 (SMAD specific E3 ubiquitin protein ligase 1)
- cell gain with vemurafenib: 0.79
- lactate per cell with vemurafenib: 0.54

SEMG2 (semenogelin 2)
- cell gain with vemurafenib: 0.85
- lactate per cell with vemurafenib: 1.49

KIF5A (kinesin family member 5A)
- cell gain with vemurafenib: 0.69 (active)
- lactate per cell with vemurafenib: 0.41

KLHL2 (kelch like family member 2)
- cell gain with vemurafenib: 0.59
- lactate per cell with vemurafenib: 0.72

NSMCE3 (NSE3 component of SMC5/6 complex)
- cell gain with vemurafenib: 0.25
- lactate per cell with vemurafenib: 0.78

LMNTD1 (lamin tail domain containing 1)
- cell gain with vemurafenib: 0.52
- lactate per cell with vemurafenib: 0.88

ARHGEF25 (Rho guanine nucleotide exchange factor 25)
- cell gain with vemurafenib: 0.72
- lactate per cell with vemurafenib: 0.62

FPR1 (formyl peptide receptor 1)
- cell gain with vemurafenib: 1.06
- lactate per cell with vemurafenib: 0.48

AP3M1 (adaptor related protein complex 3 subunit mu 1)
- cell gain with vemurafenib: 0.71
- lactate per cell with vemurafenib: 1.02

FCHSD2 (FCH and double SH3 domains 2)
- cell gain with vemurafenib: 1.07
- lactate per cell with vemurafenib: 0.51

CYP1A1 (cytochrome P450 family 1 subfamily A member 1)
- cell gain with vemurafenib: 0.12 (active)
- lactate per cell with vemurafenib: 0.11

RBM8A (RNA binding motif protein 8A)
- cell gain with vemurafenib: -0.33
- lactate per cell with vemurafenib: 1.57

LACC1 (laccase domain multifunctional purine nucleosidase 1)
- cell gain with vemurafenib: 0.75
- lactate per cell with vemurafenib: 0.72
